Experimental data published in paper PMC7854729 (Nature Communications, 2021).
Where “and” joins values, the source holds several entries; their conditions need not be identical. Identical values can stand only once. Like-named read-outs stand apart in the source and are kept apart here. This continues a long series; more values of the same kind are listed elsewhere. Where a SMILES comes first, the peptide text is derived from it.

Target: T1, PLpro-WT (Severe acute respiratory syndrome coronavirus 2, UniProt P0DTD1)
T1 construct: PLpro is a domain of Nsp3—a large multidomain protein; made in house; host or cells: E. coli BL21(DE3)-Gold
Assay type: biochemical

Compound: CC(=O)N[C@@H](CC(C)C)C(=O)N[C@@H](CCCCN)C(=O)NCC(=O)NCC(=O)Nc1ccc2c(C)cc(=O)oc2c1 [probe] (HELM PEPTIDE1{[ac].L.K.G.G.[Cc1cc(=O)oc2cc(N[*:1])ccc12]}$$$$V2.0)
- fluorescence (0.2 M PLP, time point 15): 417 and 442 and 419
- fluorescence normalised to probe only (0.2 M PLP, time point 15): 8.6875 and 9.208 and 8.729
- fluorescence (0.2 M PLP, time point 16): 436 and 463 and 440
- fluorescence normalised to probe only (0.2 M PLP, time point 16): 9.083 and 9.646 and 9.167
- fluorescence (0.2 M PLP, time point 17): 445 and 485 and 457
- fluorescence normalised to probe only (0.2 M PLP, time point 17): 9.271 and 10.1042 and 9.521
- fluorescence (0.2 M PLP, time point 18): 457 and 503 and 479
- fluorescence normalised to probe only (0.2 M PLP, time point 18): 9.521 and 10.4792 and 9.979
- fluorescence (0.2 M PLP, time point 19): 487 and 519 and 492
- fluorescence normalised to probe only (0.2 M PLP, time point 19): 10.1458 and 10.8125 and 10.25
- fluorescence (0.2 M PLP, time point 20): 497 and 541 and 511
- fluorescence normalised to probe only (0.2 M PLP, time point 20): 10.3542 and 11.2708 and 10.6458
- fluorescence (0.2 M PLP, time point 21): 526 and 555 and 529
- fluorescence normalised to probe only (0.2 M PLP, time point 21): 10.9583 and 11.5625 and 11.0208
- fluorescence (0.2 M PLP, time point 22): 534 and 571 and 544
- fluorescence normalised to probe only (0.2 M PLP, time point 22): 11.125 and 11.8958 and 11.3333
- fluorescence (0.2 M PLP, time point 23): 563 and 594 and 560
- fluorescence normalised to probe only (0.2 M PLP, time point 23): 11.7292 and 12.375 and 11.6667
- fluorescence (0.2 M PLP, time point 24): 586 and 612 and 574
- fluorescence normalised to probe only (0.2 M PLP, time point 24): 12.2083 and 12.75 and 11.9583
- fluorescence (0.2 M PLP, time point 25): 603 and 630 and 595
- fluorescence normalised to probe only (0.2 M PLP, time point 25): 12.5625 and 13.125 and 12.3958
- fluorescence (0.2 M PLP, time point 26): 624 and 645 and 608
- fluorescence normalised to probe only (0.2 M PLP, time point 26): 13 and 13.4375 and 12.6667
- fluorescence (0.2 M PLP, time point 27): 634 and 661 and 619
- fluorescence normalised to probe only (0.2 M PLP, time point 27): 13.2083 and 13.7708 and 12.8958
- fluorescence (0.2 M PLP, time point 28): 640 and 674 and 633
- fluorescence normalised to probe only (0.2 M PLP, time point 28): 13.3333 and 14.0417 and 13.1875
- fluorescence (0.2 M PLP, time point 29): 651 and 691 and 648
- fluorescence normalised to probe only (0.2 M PLP, time point 29): 13.5625 and 14.3958 and 13.5
- fluorescence (0.2 M PLP, time point 30): 675 and 706 and 663
- fluorescence normalised to probe only (0.2 M PLP, time point 30): 14.0625 and 14.7083 and 13.8125
- fluorescence (0.2 M PLP, time point 31): 693 and 720 and 678
- fluorescence normalised to probe only (0.2 M PLP, time point 31): 14.4375 and 15 and 14.125
- fluorescence (0.2 M PLP, time point 32): 708 and 736 and 690
- fluorescence normalised to probe only (0.2 M PLP, time point 32): 14.75 and 15.3333 and 14.375
- fluorescence (0.2 M PLP, time point 33): 725 and 747 and 702
- fluorescence normalised to probe only (0.2 M PLP, time point 33): 15.1042 and 15.5625 and 14.625
- fluorescence (0.2 M PLP, time point 34): 743 and 758 and 715
- fluorescence normalised to probe only (0.2 M PLP, time point 34): 15.4792 and 15.7917 and 14.8958
- fluorescence (0.2 M PLP, time point 35): 766 and 779 and 730
- fluorescence normalised to probe only (0.2 M PLP, time point 35): 15.9583 and 16.2292 and 15.2083
- fluorescence (0.2 M PLP, time point 36): 780 and 793 and 741
- fluorescence normalised to probe only (0.2 M PLP, time point 36): 16.25 and 16.5208 and 15.4375
- fluorescence (0.2 M PLP, time point 37): 796 and 806 and 753
- fluorescence normalised to probe only (0.2 M PLP, time point 37): 16.5833 and 16.7917 and 15.6875
- fluorescence (0.2 M PLP, time point 38): 809 and 816 and 764
- fluorescence normalised to probe only (0.2 M PLP, time point 38): 16.8542 and 17 and 15.9167
- fluorescence (0.3 M PLP, time point 1): 109 and 128 and 132
- fluorescence normalised to probe only (0.3 M PLP, time point 1): 2.271 and 2.667 and 2.75
- fluorescence (0.3 M PLP, time point 2): 171 and 181 and 187
- fluorescence normalised to probe only (0.3 M PLP, time point 2): 3.5625 and 3.771 and 3.896
- fluorescence (0.3 M PLP, time point 3): 226 and 231 and 238
- fluorescence normalised to probe only (0.3 M PLP, time point 3): 4.708 and 4.8125 and 4.958
- fluorescence (0.3 M PLP, time point 4): 262 and 279 and 291
- fluorescence normalised to probe only (0.3 M PLP, time point 4): 5.458 and 5.8125 and 6.0625
- fluorescence (0.3 M PLP, time point 5): 318 and 325 and 337
- fluorescence normalised to probe only (0.3 M PLP, time point 5): 6.625 and 6.771 and 7.021
- fluorescence (0.3 M PLP, time point 6): 361 and 370 and 386
- fluorescence normalised to probe only (0.3 M PLP, time point 6): 7.521 and 7.708 and 8.042
- fluorescence (0.3 M PLP, time point 7): 407 and 413 and 428
- fluorescence normalised to probe only (0.3 M PLP, time point 7): 8.479 and 8.604 and 8.917
- fluorescence (0.3 M PLP, time point 15): 702 and 710 and 757
- fluorescence normalised to probe only (0.3 M PLP, time point 15): 14.625 and 14.7917 and 15.7708
- fluorescence (0.3 M PLP, time point 16): 734 and 747 and 791
- fluorescence normalised to probe only (0.3 M PLP, time point 16): 15.2917 and 15.5625 and 16.4792
- fluorescence (0.3 M PLP, time point 17): 769 and 781 and 833
- fluorescence normalised to probe only (0.3 M PLP, time point 17): 16.0208 and 16.2708 and 17.3542
- fluorescence (0.3 M PLP, time point 18): 802 and 813 and 860
- fluorescence normalised to probe only (0.3 M PLP, time point 18): 16.7083 and 16.9375 and 17.9167
- fluorescence (0.3 M PLP, time point 19): 833 and 840 and 894
- fluorescence normalised to probe only (0.3 M PLP, time point 19): 17.3542 and 17.5 and 18.625
- fluorescence (0.3 M PLP, time point 20): 862 and 870 and 931
- fluorescence normalised to probe only (0.3 M PLP, time point 20): 17.9583 and 18.125 and 19.3958
- fluorescence (0.3 M PLP, time point 21): 894 and 902 and 959
- fluorescence normalised to probe only (0.3 M PLP, time point 21): 18.625 and 18.7917 and 19.9792
- fluorescence (0.3 M PLP, time point 22): 917 and 925 and 996
- fluorescence normalised to probe only (0.3 M PLP, time point 22): 19.1042 and 19.2708 and 20.75
- fluorescence (0.3 M PLP, time point 23): 948 and 959 and 1023
